Measured data: PubChem BioAssay AID1508597 (Cure First, 2020)

Purpose: 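Knock-downs altering ovarian cancer cell survival with or without PARP inhibitor rucaparib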 (primary screen)
Cells: human ovarian carcinoma lines grown from tumours: OCI-P5x (papillary serous) and OCI-C5x (clear cell)
Knock-down reagent: siRNA pool against human genes, 1.25 pmol siRNA per well
Duration: 72 h or 96 h, depending on the cell culture
Challenge: rucaparib 20 µM (about IC30) or vehicle, present until read-out
Rucaparib or vehicle: Vehicle
Cell line: OCI-C5x (clear cell)
Measured: 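ATP luminescence measured at 72 or 96 h according to the culture, then normalised and expressed as percent viability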
Scale: viability, normalised: higher = more viable cells remaining
Active means: 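a well counts as a hit if its normalised viability is under 80 percent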
Calls: active = viability under 80%; inactive = viability 80% or more
Shown is an unselected part of the about 2,100 reagents, in one setting of the screen. 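Calls flag viability under 80% in either arm, not effects specific to rucaparib; the reference for percent is not stated.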 Unmarked entries are inactive. Not given: the 100% reference.

The opening 3 records, to show the layout:
gene knocked down	technical replicate	viability, normalised (%)
AXL	1	50.3 (active)
AXL	2	66.9 (active)
AXL	3	59.7 (active)

Results, repeating the preview:
gene knocked down	technical replicate	viability, normalised (%)
AXL	1	50.3 (active)
AXL	2	66.9 (active)
AXL	3	59.7 (active)
EPHA3	1	61.7 (active)
EPHA3	2	58.6 (active)
EPHA3	3	41.4 (active)
RPS6KB2	1	57.4 (active)
RPS6KB2	2	59.2 (active)
RPS6KB2	3	39 (active)
CLK3	1	84.7
CLK3	2	91.3
CLK3	3	87.8
S100A4	1	34.4 (active)
S100A4	2	33.9 (active)
S100A4	3	47 (active)
STKLD1	1	72.8 (active)
STKLD1	2	64.2 (active)
STKLD1	3	51.4 (active)
TRPM6	1	49.4 (active)
TRPM6	2	40.5 (active)
TRPM6	3	45.9 (active)
MAPK4	1	84.5
MAPK4	2	68.7 (active)
MAPK4	3	57.6 (active)
